Assay results published in article PMC5998047.
These are yes or no findings as the source states them, for the method shown. In cells and extracts the contact can be indirect. A yes stands for co-enrichment or nearness to the bait. Other partners may have been found. For some assays here: A no says only that the protein was not detected with the bait.

Protein sequences, listed by entry. Tags and fused reporters are not part of them.
UniProt O00571: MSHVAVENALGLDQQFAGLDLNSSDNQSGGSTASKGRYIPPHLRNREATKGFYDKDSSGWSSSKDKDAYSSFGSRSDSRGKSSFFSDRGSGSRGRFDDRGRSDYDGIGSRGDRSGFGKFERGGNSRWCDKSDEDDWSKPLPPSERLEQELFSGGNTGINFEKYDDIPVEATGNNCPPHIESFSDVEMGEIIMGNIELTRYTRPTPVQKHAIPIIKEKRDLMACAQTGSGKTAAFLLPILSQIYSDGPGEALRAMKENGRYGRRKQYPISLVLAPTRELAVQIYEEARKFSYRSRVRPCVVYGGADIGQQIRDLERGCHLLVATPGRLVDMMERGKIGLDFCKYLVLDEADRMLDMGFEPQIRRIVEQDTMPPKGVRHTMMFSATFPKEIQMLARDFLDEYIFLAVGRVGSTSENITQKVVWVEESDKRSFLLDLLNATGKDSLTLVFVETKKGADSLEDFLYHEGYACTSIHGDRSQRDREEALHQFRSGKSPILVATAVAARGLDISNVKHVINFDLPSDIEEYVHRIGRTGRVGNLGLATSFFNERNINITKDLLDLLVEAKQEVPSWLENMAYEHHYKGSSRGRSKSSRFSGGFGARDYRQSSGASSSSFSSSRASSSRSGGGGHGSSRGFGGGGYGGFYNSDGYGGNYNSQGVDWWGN
UniProt Q9HBA0: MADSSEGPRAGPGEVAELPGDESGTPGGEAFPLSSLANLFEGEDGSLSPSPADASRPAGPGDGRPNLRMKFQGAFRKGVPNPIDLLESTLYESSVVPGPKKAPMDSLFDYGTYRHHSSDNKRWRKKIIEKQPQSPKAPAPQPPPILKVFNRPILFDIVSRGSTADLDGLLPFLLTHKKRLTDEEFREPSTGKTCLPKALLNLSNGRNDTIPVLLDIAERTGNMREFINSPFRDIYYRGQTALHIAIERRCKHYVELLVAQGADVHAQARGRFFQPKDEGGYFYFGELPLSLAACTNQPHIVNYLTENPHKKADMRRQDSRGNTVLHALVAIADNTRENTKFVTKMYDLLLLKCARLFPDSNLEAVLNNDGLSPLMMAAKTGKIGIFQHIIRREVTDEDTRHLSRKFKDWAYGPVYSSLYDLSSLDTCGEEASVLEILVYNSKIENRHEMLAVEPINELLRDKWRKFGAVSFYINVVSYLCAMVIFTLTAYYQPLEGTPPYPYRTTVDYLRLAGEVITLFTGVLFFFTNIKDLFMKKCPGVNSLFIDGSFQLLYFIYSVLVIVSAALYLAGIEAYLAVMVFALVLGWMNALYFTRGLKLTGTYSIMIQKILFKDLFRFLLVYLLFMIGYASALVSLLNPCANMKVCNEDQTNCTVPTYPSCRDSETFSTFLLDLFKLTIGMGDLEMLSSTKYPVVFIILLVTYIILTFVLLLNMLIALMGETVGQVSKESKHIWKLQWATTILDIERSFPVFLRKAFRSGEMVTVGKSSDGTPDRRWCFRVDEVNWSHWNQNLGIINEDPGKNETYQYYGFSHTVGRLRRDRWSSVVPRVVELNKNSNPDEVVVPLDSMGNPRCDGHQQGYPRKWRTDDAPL

Experiments:
DDX3X-myc (HeLa cells) [1] = molecular target: DDX3X-myc (HeLa cells) (UniProt O00571); assay: affinity purification with mass spectrometry; as a6, but HeLa cells treated with GSK1016790A before lysis
DDX3X-myc (HeLa cells) [2] = molecular target: DDX3X-myc (HeLa cells) (UniProt O00571); assay: affinity purification with mass spectrometry; HeLa cells transfected with TRPV4 and DDX3X-myc, isotonic control media; lysate with anti-Myc antibody overnight at 4 C, protein G beads, on-bead trypsin digestion, MALDI-TOF-MS

“TRPV4 (overexpressed in HeLa cells for the DDX3X pull-down with mass spectrometry) (from UniProt Q9HBA0 1-871) (receptor)” was tested, and the binding (DDX3X-myc (HeLa cells) [1]) was “no binding (only cells treated with GSK1016790A)” and the binding (DDX3X-myc (HeLa cells) [2]) was “binds”.
